# For at least one compound, name, drawing or mass did not settle the structure.
# System: hippocampal neurons
# Experiment: Aβ-induced neuronal cell death in hippocampal cell culture, Trypan Blue counting
# Assay type: cell-based, Wistar rat
# Protocol: Neuronal Cell Culture Experiments. Neuronal cell culture experiments were conducted using methodologies described previously by Lee, et al in Cell, Vol. 111(2), pages 219-230 (2002); Lei, et al in EMBO J, Vol. 21(12), pages 2977-2989 (2002); Xin, et al in J Neurosci, Vol. 25(1), pages 139-48 (2005); and Xin, et al in European Journal of Neuroscience, Vol. 21(3), pages 622-636 (2005).
# Briefly, hippocampal tissue was dissected from Wistar rat embryos (18 days gestation or E18) at 4° C. Dissociated hippocampal neurons were plated at a density of approximately 2.0×10^4 cells/cm^2 onto 35 mm culture dishes coated with poly-D-lysine. Neurons were matured in culture for 21 days in vitro in NEUROBASAL® media (Invitrogen) supplemented with B27 (2%), bFGF2 (2 ng/mL) and L-glutamine (0.5 mM). The Aβ(1-40) was dissolved in DMSO, followed by dilution into culture medium (final DMSO concentration was 1%), and incubation at 37° C. for three days to form Aβ(1-40) oligomeric species. […]
# Trypan Blue Staining and Cell Counting. […] Five random fields, one from each corner and one from the center of the dish, were counted for both live and dead cells at 63× magnification to obtain a percentage of cell death. […]
# The physiological relevance of the B12/Aβ interaction was evaluated using neuronal cell culture experiments. […]
smiles,measurement,value
"C/C1=C2/[N-][C@H]([C@H](CC(N)=O)[C@@]2(C)CCC(=O)NC[C@@H](C)OP(=O)([O-])O[C@H]2[C@@H](O)[C@@H](n3cnc4cc(C)c(C)cc43)O[C@@H]2CO)[C@]2(C)N=C(/C(C)=C3N=C(/C=C4N=C1[C@@H](CCC(N)=O)C\4(C)C)[C@@H](CCC(N)=O)[C@]\3(C)CC(N)=O)[C@@H](CCC(N)=O)[C@]2(C)CC(N)=O.[Co+3].[OH-] [vitamin B12, hydroxocobalamin]",ratio of vitamin B12 to amyloid-beta peptide at which optimum effectiveness is achieved,approximately 1:1
